“Also recorded” adds a separate entry of the source. Not every detail of the peptide structures is certain; ends, links or a residue may be inferred. Some entries repeat one wording, which the source may state once for all of them. Where a SMILES comes first, the peptide text is derived from it. Bridges are numbered along the chain shown (N, C = ends). [ ]: non-standard residue; d: D form. Tic = O=C(O)[C@@H]1Cc2ccccc2CN1; Phg = N[C@H](C(=O)O)c1ccccc1; Tle = CC(C)(C)[C@H](N)C(=O)O; Mpa = O=C(O)CCS
Legend:
[1] = Parathyroid hormone-induced hypercalcemia in mice; type: in vivo, Swiss-Webster mice; conditions: parathyroidectomized mice, 4 hr i.v. peptide infusion, FIG. 9
From the text: Parathyroid hormone (PTH) activates osteoclasts, which are involved in bone resorption. Associated with the increased osteoclast activity is an increase in serum calcium. The PTH-induced hypercalcemia assay measures the level of serum calcium, which is an indication of bone resorption in a subject (Fischer et al., Endocrinology 132:1411-1413 (1993), which is incorporated herein by reference).
Swiss-Webster mice, which had been parathyroidectomized two weeks prior to beginning the assay, were obtained from Taconic Lab Animals and Services (Germantown N.Y.). Femoral vein catheters (PE-50 fused with PE10 polyethylene tubing; Becton Dickinson; Parsippany, N.J.) were installed in the mice, flushed and locked with heparinized saline (1:10), sutured to adjacent muscle and internalized within the inguinal space of the incision before closing the incision with wound clips. […]
The experiment was initiated by feeding the mice a calcium-deficient diet overnight, then injecting the mice the following morning with a bolus of 0.2 mg PTH/kg (hPTH 1-34; Bachem; Torrance Calif.), intravenously. […] Various doses of a peptide or vehicle were infused into an animal for 4 hr, then ionized serum calcium again was measured. […] Serum calcium measurements were expressed as the difference between the value 30 min before the PTH pulse and 4 hr after peptide infusion was started. […]

chick osteoclasts = test: Chick cell detachment assay (osteoclasts vs total cells); type: cell-based; conditions: FIG. 5, serum-coated plates
αV β3 integrin receptor = test: Series of in vitro assays of Example II for potency and selectivity (FIG. 2); conditions: summary of assays
From the text: Such peptides can include, for example, peptides within the pharmacophore groups exemplified herein or peptides within other pharmacophore groups. […] The selectivity of a peptide for an integrin receptor involved in osteoclast binding to bone can be determined, for example, using the integrin receptor assays and cell attachment and detachment assays described herein.
Comparison of the IC50 values generated using the JY cell assay and the αV β3 ELISA, which measure binding of the αV β3 receptor involved in osteoclast binding to bone, with the αV β5 and α5 β1 receptor-specific ELISAs, which represent receptors that likely are not involved in osteoclast attachment, provides insight into the receptor selectivity of the peptides.

rat osteoclasts = test: Rat osteoclast attachment assay compared with MG63/NRK cell attachment; type: cell-based; conditions: FIGS. 7 and 8, FCS substrate
Procedure: To determine the effect of a peptide on the attachment of rat osteoclasts in vitro, 100 μl aliquots of the rat pup bone cell suspension described in Example II.B.2., above, were added in triplicate to 96 well "MAXISORP" plates coated with specific substrates or with FCS. Substrate coated plates were used to determine the ability of peptides to inhibit attachment or induce detachment of an osteoclast from a ligand such as vitronectin, fibronectin, osteopontin or collagen I (Collaborative Research), which are ligands present in bone. Substrates were added to 96 well plates (50 μl of a 5-10 μg/ml solution in sodium carbonate, pH 9.5) and incubated for 2 hr at 37° C. For FCS control wells, 100 μl 10% FCS was added. Wells were aspirated, then washed 2× with PBS and blocked with 1% bovine serum albumin in PBS for 2 hr at 37° C. Wells were aspirated and washed again 2× with PBS. Cells were seeded in duplicate at 4×10^4 cells/well. […]
Following incubation, the medium and nonadherent cells were removed by aspiration from each well. […] Adherent osteoclasts were counted by light microscopy. […]
MG63 and NRK cell lines were purchased from ATTC (Rockville Md.). […] Following staining, the stain was extracted with 20% acetic acid and the OD562 of the extracted stain was determined. […]
Selectivity of a peptide can be determined by comparing the results of FIGS. 7 and 8 (see, also FIG. 2).

αV β3 receptor = molecular target: T1, αV β3 receptor (Homo sapiens, UniProt P05106+P06756); test: αV β3 ELISA (competitive); type: binding; conditions: comparison of ELISA IC50 values, FIG. 2
T1 construct: The αV β3 receptor was purified from octyl-glucopyranoside-extracted human placenta; from tissue; host or cells: human placenta, octylglucoside extract

| Structure (SMILES) | PTH-induced rise in serum ionized calcium [1] | selective detachment of osteoclasts compared to other cell types (chick osteoclasts) | potency classification (αV β3 integrin receptor) | selectivity: osteoclast attachment versus MG63 or NRK attachment (rat osteoclasts) | receptor selectivity classification (αV β3 integrin receptor) | receptor selectivity for αV β3 compared to αV β5 and α5 β1 binding (αV β3 receptor) |
| --- | --- | --- | --- | --- | --- | --- |
| CC(=O)N[C@H]1CSSC[C@@H](C(N)=O)NC(=O)[C@@H]2Cc3ccccc3CN2C(=O)[C@H](CC(N)=O)NC(=O)[C@H](CC(=O)O)NC(=O)CNC(=O)[C@H](CCCNC(=N)N)NC(=O)[C@H](C)NC(=O)[C@H](C)NC1=O [compound 20] (Ac-CAARGDN[Tic]C-NH2; disulfide 1-9) | decreased the PTH-induced rise in serum ionized calcium in a dose responsive manner | caused selective detachment of osteoclasts as compared to other cell types | particularly potent |  |  |  |
| CC(C)(C)[C@@H]1NC(=O)[C@H](CC(=O)O)NC(=O)[C@H](CC(=O)O)NC(=O)CNC(=O)[C@H](CCCNC(=N)N)NC(=O)CNC(=O)CC[C@@H](C(N)=O)NC1=O [compound 487] (GRGDD[Tle]E-NH2; lactam N-7) |  |  |  | highly active on osteoclast attachment but were less active on MG63 or NRK attachment | particularly receptor selective | receptor selective for αV β3; also recorded: higher affinity for αV β3 than for αV β5 and α5 β1 |
| N=C(N)NCCC[C@@H]1NC(=O)CCSSC[C@@H](C(N)=O)NC(=O)[C@H](c2ccccc2)NC(=O)[C@H](CC(=O)O)NC(=O)[C@H](CC(=O)O)NC(=O)CNC1=O [compound 750] ([Mpa]RGDD[Phg]C-NH2; disulfide 1-7) |  |  |  | highly active on osteoclast attachment but were less active on MG63 or NRK attachment | particularly receptor selective | receptor selective for αV β3; also recorded: higher affinity for αV β3 than for αV β5 and α5 β1 |
